Measurements as given in paper PMC6657086.
Results are given in words; binding and its absence hold for the method and conditions named. In cells and extracts the contact can be indirect. Here binding means that the protein was enriched with, or labelled near, the bait; the list need not be complete. Tags and fused reporters may be left off the sequences shown.

By UniProt entry, the sequences of proteins in these tests, tags left out.
UniProt P17096: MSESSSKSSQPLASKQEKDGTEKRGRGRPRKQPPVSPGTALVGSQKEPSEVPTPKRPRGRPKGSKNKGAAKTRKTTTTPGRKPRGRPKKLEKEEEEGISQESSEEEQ

Target: T1, KIFC1-Flag (kinesin family member C1), stably expressed in HepG2 cells (human) (UniProt Q9BW19)
T1 sequence: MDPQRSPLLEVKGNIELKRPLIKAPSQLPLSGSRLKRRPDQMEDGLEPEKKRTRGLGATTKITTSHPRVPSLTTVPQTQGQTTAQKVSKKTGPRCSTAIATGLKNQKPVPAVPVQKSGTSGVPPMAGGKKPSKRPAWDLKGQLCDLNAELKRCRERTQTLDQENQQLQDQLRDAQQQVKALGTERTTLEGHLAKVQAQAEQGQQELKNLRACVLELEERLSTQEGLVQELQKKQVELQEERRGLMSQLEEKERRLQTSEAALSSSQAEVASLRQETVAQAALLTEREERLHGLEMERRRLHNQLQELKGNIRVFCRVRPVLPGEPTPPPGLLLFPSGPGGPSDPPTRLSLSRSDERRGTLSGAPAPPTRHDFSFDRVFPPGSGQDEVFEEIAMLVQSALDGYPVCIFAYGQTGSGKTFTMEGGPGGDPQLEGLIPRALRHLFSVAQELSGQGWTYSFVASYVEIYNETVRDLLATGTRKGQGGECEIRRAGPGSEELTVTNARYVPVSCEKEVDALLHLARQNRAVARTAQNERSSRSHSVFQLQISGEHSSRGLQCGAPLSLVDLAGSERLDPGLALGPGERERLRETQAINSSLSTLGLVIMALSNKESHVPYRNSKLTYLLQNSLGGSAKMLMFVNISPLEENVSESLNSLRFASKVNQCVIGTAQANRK
Assay: affinity purification with mass spectrometry; whole cell lysates of HepG2-vector and HepG2-KIFC1-Flag cells precleared with protein A/G beads, immunoprecipitated with Flag-tag antibody; silver staining and mass spectrometry of the precipitates

binding: binds
Substance: HMGA1 (high mobility group AT-hook 1), endogenous in HepG2 cells (from UniProt P17096 1-107)
